{"source": "PubChem BioAssay AID556", "about": "(SRMLSC, 2006)", "note": "The list shows a part of the results."}
{"test_system": "diphosphomevalonate decarboxylase (Streptococcus pneumoniae D39)", "assay": "diphosphomevalonate decarboxylase activity blockers – biochemical, PK/LDH-coupled NADH fluorescence, primary screen (AID 556);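 further: kinetic rate of NADH fluorescence loss reporting ADP formed by the decarboxylase; 0% = full reaction rate with carrier and 100% = no-substrate background rate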", "settings": "purified DPM-DC, measured here: pilot screen trials, at 10 µM, stronger effect = higher value", "units": {"inhibition": "%"}}
{"smiles": "CP(=S)(Nn1cnnc1)Oc1ccccc1", "note": "(stereo unspecified)", "inhibition": 2}
{"smiles": "CCOP1(=S)c2c(C)nn(CCC#N)c2N=C(c2ccccc2F)N1C", "note": "(stereo unspecified)", "inhibition": 0.5}
{"smiles": "Cc1ccc(C)c(NP(C)(=O)Oc2ccccc2)c1", "note": "(stereo unspecified)", "inhibition": 3}
{"smiles": "CN(C)CCOC(=O)C(O)(c1ccccc1)C1CCCCC1", "note": "(stereo unspecified)", "inhibition": 1}
{"smiles": "CP(=O)(Nc1ccc2c(c1)OCCO2)Oc1ccccc1", "note": "(stereo unspecified)", "inhibition": 3.5}
{"smiles": "CP(=O)(Nc1ccccn1)Oc1ccccc1", "note": "(stereo unspecified)", "inhibition": 0.5}
